# According to PubChem BioAssay (NCATS):
# Inconclusive results, whose numbers are uncertain, are shown with a selection of clear calls. Potencies of inconclusive entries are doubtful fits and often do not repeat. The source made the active and inactive calls. Calls come from the whole dose curve; as a rule, active = well fitted curve in the direction sought with a large enough effect; inconclusive = small, poorly fitted or top-dose-only effect, or another doubt; inactive = no such curve, though single readings can be large; an effect the other way counts as inactive or inconclusive.
# Experiments:
# [1] = Quantitative High-Throughput drug screen in 47 multiple myeloma cell lines against the NCATS MIPE library collection: KHM11_PLB cell viability assay (AID 1918962); settings: KHM11 myeloma cell viability, CellTiter-Glo ATP luminescence, 48 h; series mostly up to 45.8 µM; note: nearly all actives have a fitted effect of over 35% in size
# Outline: (§1)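 Luminescent ATP measurement with CellTiter-Glo gives viability, scaled between DMSO-only wells (100%) and media-only wells (0%). Cells, 500 per well, faced library compounds for 48 hours at 37C.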
# [2] = Quantitative High-Throughput drug screen in 47 multiple myeloma cell lines against the NCATS MIPE library collection: JIM3_ECACC cell viability assay (AID 1918963; note: nearly all actives have a fitted effect of over 35% in size); settings: JIM3 myeloma viability, CellTiter-Glo ATP, 48 h; series mostly up to 45.8 µM
# Outline: as §1
# [3] = Quantitative High-Throughput drug screen in 47 multiple myeloma cell lines against the NCATS MIPE library collection: JIM1_ECACC cell viability assay (AID 1918964); settings: JIM1 myeloma viability, CellTiter-Glo ATP luminescence, 48 h; viability (% of DMSO): at 45.8 µM (top of the series)
# Outline: (§2)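 qHTS of the MIPE 4.0 collection: 500 myeloma cells/well, 48 h drug exposure at 37C in 5% CO2, then CellTiter-Glo for 5 min at room temperature before luminescence reading.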
# [4] = Quantitative High-Throughput drug screen in 47 multiple myeloma cell lines against the NCATS MIPE library collection: JJN3_DSMZ cell viability assay (AID 1918966; note: nearly all actives have a fitted effect of over 50% in size); settings: JJN3 myeloma cells viability, CellTiter-Glo ATP, 48 h; series mostly up to 45.8 µM
# Outline: as §2
# [5] = Quantitative High-Throughput drug screen in 47 multiple myeloma cell lines against the NCATS MIPE library collection: H1112_PLB cell viability assay (AID 1918967; note: nearly all actives have a fitted effect of over 30% in size); settings: H1112 myeloma cells viability, ATP luminescence, 48 h; series mostly up to 45.8 µM
# Outline: as §2
# [6] = Quantitative High-Throughput drug screen in 47 multiple myeloma cell lines against the NCATS MIPE library collection: Karpas25_ECACC cell viability assay (AID 1918968; note: nearly all actives have a fitted effect of over 35% in size); settings: Karpas25 myeloma viability, CellTiter-Glo ATP, 48 h; series mostly up to 45.8 µM
# Outline: as §2
# [7] = Quantitative High-Throughput drug screen in 47 multiple myeloma cell lines against the NCATS MIPE library collection: KMS27_JCRB cell viability assay (AID 1918970); settings: KMS27 myeloma cells, CellTiter-Glo ATP viability, 48 h; viability (% of DMSO): at 45.8 µM (top of the series); note: nearly all actives have a fitted effect of over 30% in size
# Outline: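 KMS27_JCRB myeloma cells, 500 per well, exposed 48 h at 37 C, 5% CO2 to MIPE 4.0 compounds. Viability from ATP by CellTiter-Glo luminescence, normalized to DMSO (100%) and medium-only (0%) wells.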
# [8] = Quantitative High-Throughput drug screen in 47 multiple myeloma cell lines against the NCATS MIPE library collection: KMS12BM_JCRB cell viability assay (AID 1918971); settings: KMS12BM myeloma viability, CellTiter-Glo ATP, 48 h; viability, % of DMSO: at 45.8 µM (top of the series); note: nearly all actives have a fitted effect of over 35% in size
# Outline: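 CellTiter-Glo luminescence (ATP) after 48 h compound exposure, 37C/5% CO2; 500 cells/well; MIPE 4.0 approved/investigational drugs pinned in; DMSO = 100%, media only = 0% viability.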
# [9] = Quantitative High-Throughput drug screen in 47 multiple myeloma cell lines against the NCATS MIPE library collection: KMS12PE_JCRB cell viability assay (AID 1918972); settings: KMS12PE myeloma viability, CellTiter-Glo ATP, 48 h; viability: at 45.8 µM (top of the series); note: nearly all actives have a fitted effect of over 30% in size
# Outline: (§3)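 Steps: seed 500 cells per well; pin-transfer MIPE 4.0 library; incubate 48 h at 37C, 5% CO2, humidified; add CellTiter-Glo, 5 min room temperature; read luminescence.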
# [10] = Quantitative High-Throughput drug screen in 47 multiple myeloma cell lines against the NCATS MIPE library collection: INA6_PLB cell viability assay (AID 1918965; note: nearly all actives have a fitted effect of over 55% in size); settings: INA6 myeloma viability, CellTiter-Glo ATP luminescence, 48 h; series mostly up to 45.8 µM
# Outline: as §3
# Potency is the fitted concentration of half-maximal effect.
SMILES,Potency [1],Potency [2],Potency [3],Potency [4],Potency [5],Potency [6],Potency [7],Potency [8],Potency [9],Potency [10]
C1COC(NC(C2CC2)C2CC2)=N1,inactive,"inconclusive: 37.2 µM [cytotoxic, single point]","inconclusive: 20.9 µM [cytotoxic, partial curve]","inconclusive: 18.7 µM [cytotoxic, partial curve, poor fit]",inactive,"inconclusive: 33.2 µM [cytotoxic, single point]","inconclusive: 37.2 µM [cytotoxic, single point]","inconclusive: 0.0372 µM [rising, full curve]","inconclusive: 33.2 µM [cytotoxic, single point]",–
CCOC(=O)N1c2ccc(C(F)(F)F)cc2[C@@H](N(Cc2cc(C(F)(F)F)cc(C(F)(F)F)c2)C(=O)OC)C[C@H]1CC,"inconclusive: 14.8 µM [cytotoxic, partial curve, poor fit]","inconclusive: 20.9 µM [cytotoxic, single point]",inactive,active: 5.9 µM,inactive,"inconclusive: 20.9 µM [cytotoxic, partial curve]",–,active: 13.2 µM,–,–
COc1cc(N2CCN(C)CC2)ccc1Nc1nc(N)c(C(=O)c2c(Cl)cccc2Cl)s1,"inconclusive: 5.26 µM [cytotoxic, partial curve, poor fit]","inconclusive: 5.26 µM [cytotoxic, partial curve, poor fit]","inconclusive: 20.9 µM [cytotoxic, partial curve, poor fit]","inconclusive: 6.62 µM [cytotoxic, full curve, poor fit]",inactive,"inconclusive: 0.166 µM [cytotoxic, partial curve, poor fit]",–,"inconclusive: 33.2 µM [cytotoxic, single point]",–,–
CC(C)c1noc(N2CCC(COc3ccc(-c4ccc(S(C)(=O)=O)cc4)nc3)CC2)n1,"inconclusive: 105 µM [cytotoxic, partial curve, poor fit]","inconclusive: 10.5 µM [cytotoxic, partial curve, poor fit]",inactive,"inconclusive: 14.8 µM [cytotoxic, partial curve, poor fit]",–,active: 1.48 µM,"inconclusive: 0.418 µM [cytotoxic, full curve, poor fit]","inconclusive: 4.18 µM [cytotoxic, full curve, poor fit]",–,–
Nc1ncn([C@H]2C[C@H](O)[C@@H](CO)O2)c(=O)n1,inactive,"inconclusive: 8.33 µM [cytotoxic, partial curve, poor fit]","inconclusive: 1.05 µM [cytotoxic, full curve, poor fit]","inconclusive: 0.0023 µM [rising, full curve, poor fit]","inconclusive: 4.18 µM [cytotoxic, partial curve, poor fit]",–,–,"inconclusive: 8.33 µM [cytotoxic, single point]","inconclusive: 0.166 µM [cytotoxic, full curve, poor fit]",–
c1cncc(CN2CCC(n3ncc4c(N5CCOCC5)nc(-c5ccc6[nH]ccc6c5)nc43)CC2)c1,active: 1.66 µM,–,"inconclusive: 0.0469 µM [cytotoxic, full curve, poor fit]",–,–,–,–,–,–,–
C=C1C(=CC=C2CCCC3(C)[C@@H]([C@H](C)C=CC=CC(O)(CC)CC)CC[C@@H]23)C[C@@H](O)C[C@@H]1O (some centres undefined),"inconclusive: 33.2 µM [cytotoxic, single point]","inconclusive: 0.0019 µM [cytotoxic, full curve, poor fit]",active: 16.6 µM,–,active: 23.5 µM,–,active: 29.6 µM,–,active: 14.8 µM,–
Cc1cnc(NC(=O)C2=C(O)c3ccccc3S(=O)(=O)N2C)s1,"inconclusive: 3.32 µM [rising, partial curve]",inactive,–,inactive,–,inactive,inactive,–,"inconclusive: 37.2 µM [cytotoxic, single point]","inconclusive: 0.0132 µM [rising, full curve, poor fit]"
CNC(=O)[C@H](CC1=CN=C2C=CCC=C12)NC(=O)[C@@H](CC(=O)NO)CC(C)C,"inconclusive: 10.5 µM [rising, single point]",active: 26.4 µM,–,"inconclusive: 4.69 µM [cytotoxic, partial curve, poor fit]",active: 14.8 µM,–,–,–,–,–
O=C1[C@H](Cc2ccc(O)cc2)N2C(=O)CCN(C(=O)NCc3ccccc3)[C@H]2CN1Cc1cccc2ccccc12,active: 2.96 µM,"inconclusive: 3.72 µM [cytotoxic, full curve]","inconclusive: 3.32 µM [cytotoxic, partial curve, poor fit]",–,–,–,"inconclusive: 0.0187 µM [cytotoxic, full curve, poor fit]",–,–,–
c1ccc(-c2oc3ncnc(NC[C@@H]4CCCO4)c3c2-c2ccccc2)cc1,"inconclusive: 13.2 µM [cytotoxic, partial curve, poor fit]","inconclusive: 16.6 µM [cytotoxic, partial curve]","inconclusive: 9.35 µM [cytotoxic, single point]",–,–,"inconclusive: 14.8 µM [cytotoxic, partial curve]",–,–,–,–

# Laid out differently: entries from further up.
SMILES	Potency [1]	Potency [2]	Potency [3]	Potency [4]	Potency [5]	Potency [6]	Potency [7]	Potency [8]	Potency [9]	Potency [10]
CC(C)c1noc(N2CCC(COc3ccc(-c4ccc(S(C)(=O)=O)cc4)nc3)CC2)n1	inconclusive: 105 µM [cytotoxic, partial curve, poor fit]	inconclusive: 10.5 µM [cytotoxic, partial curve, poor fit]	inactive	inconclusive: 14.8 µM [cytotoxic, partial curve, poor fit]	–	active: 1.48 µM	inconclusive: 0.418 µM [cytotoxic, full curve, poor fit]	inconclusive: 4.18 µM [cytotoxic, full curve, poor fit]	–	–
c1cncc(CN2CCC(n3ncc4c(N5CCOCC5)nc(-c5ccc6[nH]ccc6c5)nc43)CC2)c1	active: 1.66 µM	–	inconclusive: 0.0469 µM [cytotoxic, full curve, poor fit]	–	–	–	–	–	–	–
